Assay results reported in article PMC3712912.
Results are given in words; binding and its absence hold for the method and conditions named. Some results given as binding are weak or reduced against the parent protein; the word gives no strength.

Protein sequences, listed by entry. Tags and fused reporters are not part of them. Lines headed by an entry give the natural chain unless they say otherwise; changes in a name come on top. Chains listed by the source or under a name are the forms on record and can include a tag or linker.
UniProt Q15691: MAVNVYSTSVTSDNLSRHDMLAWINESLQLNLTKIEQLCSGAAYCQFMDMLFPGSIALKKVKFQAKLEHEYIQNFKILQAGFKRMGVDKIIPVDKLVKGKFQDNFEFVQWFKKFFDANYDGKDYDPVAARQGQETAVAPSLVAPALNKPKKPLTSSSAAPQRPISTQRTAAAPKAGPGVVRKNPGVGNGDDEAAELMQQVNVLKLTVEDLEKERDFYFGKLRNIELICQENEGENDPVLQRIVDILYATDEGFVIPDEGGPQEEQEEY
p135 Nt-GCN4 (MMRQ, p150Glued amino acids 139–210, GCN4 coiled-coil, linker, C-terminal 6×-His) (Q14203-1, form named): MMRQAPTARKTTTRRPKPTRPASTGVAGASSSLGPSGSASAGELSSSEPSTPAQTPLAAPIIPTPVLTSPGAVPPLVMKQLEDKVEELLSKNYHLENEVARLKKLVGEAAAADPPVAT
p150 Nt-GCN4 (human p150Glued amino acids 1–210, GCN4 coiled-coil, linker, C-terminal 6×-His) (Q14203-1, form named): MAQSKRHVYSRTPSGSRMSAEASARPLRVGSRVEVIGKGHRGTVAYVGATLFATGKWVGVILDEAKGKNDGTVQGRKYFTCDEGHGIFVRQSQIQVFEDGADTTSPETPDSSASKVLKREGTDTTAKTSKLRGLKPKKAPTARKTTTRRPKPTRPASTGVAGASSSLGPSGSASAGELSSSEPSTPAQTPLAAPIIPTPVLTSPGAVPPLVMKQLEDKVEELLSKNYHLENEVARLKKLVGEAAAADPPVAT

Target: recombinant full-length EB1 (UniProt Q15691)
Experiment: SEC; EB1 and p150 polypeptide run alone or pre-incubated in a 1∶2 ratio; analytical Superdex 200 10/300 GL, BRB20 pH 7.1 with 125 mM KCl and 10 mM imidazole, 4 °C; both purified

**Q.** How did the binding turn out when “p135 Nt-GCN4 (MMRQ, p150Glued amino acids 139–210, GCN4 coiled-coil, linker, C-terminal 6×-His) (from UniProt Q14203-1 139-210) (domain or fragment)” was run?
**A.** Its binding is “no binding”.

**Q.** With “p150 Nt-GCN4 (human p150Glued amino acids 1–210, GCN4 coiled-coil, linker, C-terminal 6×-His) (from UniProt Q14203-1 1-210) (domain or fragment)” as the substance, how does the binding read?
**A.** The binding was “binds”.
